According to PMC3267021, “The Molecular Basis for the Endocytosis of Small R-SNAREs by the Clathrin Adaptor CALM” (Cell, 2011):
These are yes or no findings as the source states them, for the method shown. Binding can be weak; no strength is given. Where a sequence is shown, tags or fusion partners need not be part of it.

Target: GST-VAMP3 (VAMP3 residues 1-81) (human)
Test: pull-down; GST-tagged bait (SNARE or preformed, purified 1:1:1 SNARE complex, 2 nmoles) on glutathione beads, His6Myc-tagged prey; 20 mM HEPES pH 7.4, 150 mM NaCl, 4 mM DTT, 4 mM β-mercaptoethanol, 0.1% NP-40, 0.05% BSA; 4°C overnight; Coomassie gel and anti-myc western blot; both purified

Binder | binding
His6MycCALM_(ANTH) (CALM ANTH domain, residues 1-289) (domain or fragment, UniProt O55012 1-289) MSGQSLTDRITAAQHSVTGSAVSKTVCKATTHEIMGPKKKHLDYLIQCTNEMNVNIPQLADSLFERTTNSSWVVVFKSLITTHHLMVYGNERFIQYLASRNTLFNLSNFLDKSGLQGYDMSTFIRRYSRYLNEKAVSYRQVAFDFTKVKRGADGVMRTMNTEKLLKTVPIIQNQMDALLDFNVNSNELTNGVINAAFMLLFKDAIRLFAAYNEGIINLLEKYFDMKKNQCKEGLDIYKKFLTRMTRISEFLKVAEQVGIDRGDIPDLSQAPSSLLDALEQHLASLEGKK | binds
His6MycAP180_(ANTH) (AP180 ANTH domain, residues 1-304) (domain or fragment, UniProt Q61548 1-304) MSGQTLTDRIAAAQYSVTGSAVARAVCKATTHEVMGPKKKHLDYLIQATNETNVNIPQMADTLFERATNSSWVVVFKALVTTHHLMVHGNERFIQYLASRNTLFNLSNFLDKSGSHGYDMSTFIRRYSRYLNEKAFSYRQMAFDFARVKKGADGVMRTMVPEKLLKSMPILQGQIDALLEFDVHPNELTNGVINAAFMLLFKDLIKLFACYNDGVINLLEKFFEMKKGQCKDALEIYKRFLTRMTRVSEFLKVAEQVGIDKGDIPDLTQAPSSLMETLEQHLNTLEGKKPGNNEGSGAPSPLSK | no binding
